No constants are given. Whether binding was seen depends on the method and setting. Some binding calls cover weakened binding; strength is not graded here. Where a sequence is shown, tags or fusion partners need not be part of it.

The results in this text go back to patent publication US20170072041A1 (OHIO STATE INNOVATION FOUNDATION, published 2017).

In assay [1] the target is canine DNase X on the cell surface (canine primary macrophages, DH82 cells) (canine). As to the kind of experiment: immunofluorescence, deconvolution microscopy, not permeabilised.
The target is the same in assay [2]. As to the kind of experiment: immunofluorescence of canine primary macrophages and DH82 cells, 30 min, not permeabilised.

B1: rEtpE-C (recombinant C-terminal region of EtpE/ECH1038, residues 1656-1963, C-terminal histidine-tagged fusion protein) (ligand)
chain: ELLSLVGGHRNASSNNANNGRSLSQGIRYKITFKISFAQNYFPVDEIIKLQQDANNMEYGVHGVHRTDIIALWSYISYASSKSKWLFKRYQSFAGLLFEIGAWGKCTSAERVFFTSMNRYSEKLPLKVYNFIRKITTGDFARKFSGMQSLYTYKQRVYDYVMHCVLRGGLGGECSDMTLREISNELHKLKQEIYSNYDVFRDLGITNGQQEVLLLINVMMLNYAMSDLLVSTTQVNSMLADVRSSLSRTAHCLPYGTVSQLQRSVSHMKYGEYSNYRASVVALWACISCLASFNDDMEPLIKLMLEGD
notes: Used renatured on membrane or Ni matrix, or coated on 0.5 um latex beads; also called rEtpE-C-coated beads; not shown: C-terminal histidine tag from pET33b(+)
B1: the binding result in assay [1] and in assay [2] was “binds” throughout.
